# HELM strings list residues between dots; [ac] is acetyl, [am] amide, other brackets name non-standard units.
# Assay: general procedure: Fmoc solid-phase peptide synthesis; Polydimethylacrylamide resin (Cambridge Research Biochemicals) with 4-hydroxymethylbenzoic acid linker; preformed symmetrical anhydrides; DCC/HOBt; ONp active esters
# Details: analytical hplc
# [1] = whole synthesis, scale of the general procedure 2.96 mmol
Substance,final HPLC purity [1] [%],final HPLC purity (cyclisation step) [%]
Cyclo (Gly-Gln-Trp-Phe-(R)Gly[ANC]Leu-Met),97,–
Cyclo(Gln-Npa-Phe-(R)Gly[ANC-2]Leu-Met),98,–
"PEPTIDE1{Q.W.F.G.L.M}$PEPTIDE1,PEPTIDE1,6:R2-1:R1$$$V2.0",>98,–
cyclo (Gln-Trp-Phe(R)Gly [ANC-2]Leu-Met),–,92

# — patent publication US5331089A (Merck Sharpe & Dohme, Ltd., priority 1988, dated 1994)
